The list shows a part of the results.

Chains of the proteins cited; added tags and fusions are not shown.
UniProt Q0JBA9, entry or part of it: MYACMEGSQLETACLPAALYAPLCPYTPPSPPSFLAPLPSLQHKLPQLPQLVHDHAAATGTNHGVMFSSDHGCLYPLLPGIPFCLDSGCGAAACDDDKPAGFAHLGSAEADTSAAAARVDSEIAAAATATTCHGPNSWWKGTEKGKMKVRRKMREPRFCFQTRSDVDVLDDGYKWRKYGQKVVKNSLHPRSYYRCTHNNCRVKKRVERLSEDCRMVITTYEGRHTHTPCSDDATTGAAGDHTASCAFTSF

The target of this assay is OsWRKY34 (Oryza sativa, UniProt Q0JBA9 1-250). As to the kind of experiment: protein-binding microarray (RPBM); PBS, 2% BSA, 51.3 ng/ul salmon testes DNA, 50 uM zinc acetate, 200 nM TF, 25 C, 1 h; high values mean tight binding. The following applies: protein: recombinant; tags: N-terminal polyhistidine and DsRed monomer fusion (pET32a); label: CyDye5-dUTP incorporated in the synthesized complementary strand; 3' TTTTT single-stranded linker to array surface; dsDNA, one strand shown. The method, boiled down: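 An Axon 4000B scanner gave the binding signal as per-feature fluorescence intensity in arbitrary units. This followed washing of a custom Agilent array that had been incubated for 1 h at 25 °C with 200 nM protein in PBS, 2% BSA, salmon testes DNA and 50 µM zinc acetate. The proteins were transcription factors fused at the N-terminus to polyhistidine and DsRed, expressed in E. coli BL21-CodonPlus and purified on Ni–NTA.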
For the sequence “CGCGGCGCCAGTATTCGTCACGCATCTCGTTTTCTCTTTACGGAGTCACCTAGTGCAG”, the binding signal was 9790 fluorescence intensity (a.u.).

Regarding “ATCTTTCTTATGCTGGCCATGATCTATGTTGCTGTTTTTGCGGAGTCACCTAGTGCAG”, the binding signal is 17700 fluorescence intensity (a.u.).

On to “AGAGAGAGATAGAGATCTGAGTTGACCGCCGTCGACTTAACGGAGTCACCTAGTGCAG”, for which the binding signal is 8290 fluorescence intensity (a.u.).

For the sequence “AGTTCTTTCATCGTATTCTATTATCTAGCCTTAGCTTTTACGGAGTCACCTAGTGCAG”, the binding signal is 8140 fluorescence intensity (a.u.).

Regarding “GGTGTGAATGCATGCATGGCCACATTTCATATTTCATATACGGAGTCACCTAGTGCAG”, the binding signal was 8050 fluorescence intensity (a.u.).

“CGCTTCGTCATCTCGTCGTCGTTTGTGTTCTTGGATTGGGCGGAGTCACCTAGTGCAG”: the binding signal is 14000 fluorescence intensity (a.u.).

As for “TTATATCCTCACCTTCTCTCTCGCATCCTCTCCTGTATATCGGAGTCACCTAGTGCAG”, the binding signal is 9430 fluorescence intensity (a.u.).

In the case of “ATGGGGAGGCGGCGGAGGAGGAGGTCGTGTTCCCGATGGCCGGAGTCACCTAGTGCAG”, the binding signal is 8490 fluorescence intensity (a.u.).

Consider “ATCTTGTTTGGGCTGGGATGGCTGAACCGTATTGATCTACCGGAGTCACCTAGTGCAG”, for which the binding signal was 11100 fluorescence intensity (a.u.).

Regarding “ATGCCATTTCTCAATTCCTGGAGCTATCAGATTATCATACCGGAGTCACCTAGTGCAG”, the binding signal is 9170 fluorescence intensity (a.u.).

As to “ACCCAACGTTTGATTGTTCGTCTTATTTAATTTTTTTTTACGGAGTCACCTAGTGCAG”, the binding signal is 12400 fluorescence intensity (a.u.).

With “GTTGAGTGTGTATATAAAGGATGTGTGTGCTGCGCTCTGACGGAGTCACCTAGTGCAG”, the binding signal was 8810 fluorescence intensity (a.u.).

Consider “CTGGGTATGTTATCTTCAGCAACAACTTTATTTACCTTCTCGGAGTCACCTAGTGCAG”, for which the binding signal is 9620 fluorescence intensity (a.u.).

Turning to “GAACTGAGATCATGTTCATATGTTGTTTTGCCATCGTATTCGGAGTCACCTAGTGCAG”, the binding signal was 9140 fluorescence intensity (a.u.).

Consider “GGGAGAGGGGAGGGGATTGCCATTGCTGCTGCTGCTAATGCGGAGTCACCTAGTGCAG”, for which the binding signal is 8850 fluorescence intensity (a.u.).

In the case of “GGGATTTCATATATCTGGTTTTGCGGTTGGGGACGATTTTCGGAGTCACCTAGTGCAG”, the binding signal is 12300 fluorescence intensity (a.u.).

In the case of “GGTTGGATTTCACACCCCGGGACTCCCACATTTTCAAATTCGGAGTCACCTAGTGCAG”, the binding signal was 10200 fluorescence intensity (a.u.).

Take “AATTTTGATTTGATTCTGCTGCCTCCGGCGCGCCCCTGATCGGAGTCACCTAGTGCAG”: the binding signal is 10300 fluorescence intensity (a.u.).

On to “TACACGCTACCTATCTGACAGTATAAACACTCCATTGTACCGGAGTCACCTAGTGCAG”, for which the binding signal was 9960 fluorescence intensity (a.u.).

“TGGAGGGGAGTGGGATCGCGATCACGGGTGGGGCGTCGGACGGAGTCACCTAGTGCAG”: the binding signal was 13100 fluorescence intensity (a.u.).

Take “AACAGAGAAGACACTTGATATTGTAAGCTTTGACTAGTTTCGGAGTCACCTAGTGCAG”: the binding signal was 8350 fluorescence intensity (a.u.).

“AACGTACTAATGCATGACACCGTTGACTTTTTTTCAACGTCGGAGTCACCTAGTGCAG”: the binding signal was 40400 fluorescence intensity (a.u.).

With “AGTCAGTGACATCTATCTTTTCATCGATGTGTCTATTGCCCGGAGTCACCTAGTGCAG”, the binding signal was 8640 fluorescence intensity (a.u.).

For the origin of these results see PMC7819943, “Rice protein-binding microarrays: a tool to detect cis-acting elements near promoter regions in rice”.
